Experimental findings from patent US20250283871A1, “COMPOSITIONS AND METHODS FOR MODULATING THE INTERACTION BETWEEN SS18-SSX FUSION ONCOPROTEIN AND NUCLEOSOMES” (Dana-Farber Cancer Institute, Inc., priority 2020, published 2025) are described below.

This series concerns BAF complex subunits and histone proteins. Put plainly: Mass spectrometry proteomics of purified HA-SS18 WT and HA-SS18-SSX1 complexes (Tables 5A-5E). Also noted: species or system human.
Setting [1] is: HA-SS18SSX1_NE_peptides: protein co-purified with HA-SS18-SSX1 BAF complexes from soluble nuclear extract (NE), HEK-293T cells.
The mark [2] stands for this setting: HA-SS18WT_CHR_peptides: HA-SS18 WT purification from nuclease-treated solubilized chromatin (CHR), HEK-293T, label = protein identified.

B1: IPO5 (protein, UniProt O00410 2-1097, looked up)
Importin-5: AAAAAEQQQFYLLLGNLLSPDNVVRKQAEETYENIPGQSKITFLLQAIRNTTAAEEARQMAAVLLRRLLSSAFDEVYPALPSDVQTAIKSELLMIIQMETQSSMRKKVCDIAAELARNLIDEDGNNQWPEGLKFLFDSVSSQNVGLREAALHIFWNFPGIFGNQQQHYLDVIKRMLVQCMQDQEHPSIRTLSARATAAFILANEHNVALFKHFADLLPGFLQAVNDSCYQNDDSVLKSLVEIADTVPKYLRPHLEATLQLSLKLCGDTSLNNMQRQLALEVIVTLSETAAAMLRKHTNIVAQTIPQMLAMMVDLEEDEDWANADELEDDDFDSNAVAGESALDRMACGLGGKLVLPMIKEHIMQMLQNPDWKYRHAGLMALSAIGEGCHQQMEGILNEIVNFVLLFLQDPHPRVRYAACNAVGQMATDFAPGFQKKFHEKVIAALLQTMEDQGNQRVQAHAAAALINFTEDCPKSLLIPYLDNLVKHLHSIMVLKLQELIQKGTKLVLEQVVTSIASVADTAEEKFVPYYDLFMPSLKHIVENAVQKELRLLRGKTIECISLIGLAVGKEKFMQDASDVMQLLLKTQTDFNDMEDDDPQISYMISAWARMCKILGKEFQQYLPVVMGPLMKTASIKPEVALLDTQDMENMSDDDGWEFVNLGDQQSFGIKTAGLEEKSTACQMLVCYAKELKEGFVEYTEQVVKLMVPLLKFYFHDGVRVAAAESMPLLLECARVRGPEYLTQMWHFMCDALIKAIGTEPDSDVLSEIMHSFAKCIEVMGDGCLNNEHFEELGGILKAKLEEHFKNQELRQVKRQDEDYDEQVEESLQDEDDNDVYILTKVSDILHSIFSSYKEKVLPWFEQLLPLIVNLICPHRPWPDRQWGLCIFDDVIEHCSPASFKYAEYFLRPMLQYVCDNSPEVRQAAAYGLGVMAQYGGDNYRPFCTEALPLLVRVIQSADSKTKENVNATENCISAVGKIMKFKPDCVNVEEVLPHWLSWLPLHEDKEEAVQTFNYLCDLIESNHPIVLGPNNTNLPKIFSIIAEGEMHEAIKHEDPCAKRLANVVRQVQTSGGLWTECIAQLSPEQQAAIQELLNSA
As for B1, under setting [1], the “Total (peptides)” value is listed as 2 and the “Unique (peptides)” value is 2.

B2: PC (protein, UniProt P11498 21-1178, looked up)
Pyruvate carboxylase, …: TAPAASPNVRRLEYKPIKKVMVANRGEIAIRVFRACTELGIRTVAIYSEQDTGQMHRQKADEAYLIGRGLAPVQAYLHIPDIIKVAKENNVDAVHPGYGFLSERADFAQACQDAGVRFIGPSPEVVRKMGDKVEARAIAIAAGVPVVPGTDAPITSLHEAHEFSNTYGFPIIFKAAYGGGGRGMRVVHSYEELEENYTRAYSEALAAFGNGALFVEKFIEKPRHIEVQILGDQYGNILHLYERDCSIQRRHQKVVEIAPAAHLDPQLRTRLTSDSVKLAKQVGYENAGTVEFLVDRHGKHYFIEVNSRLQVEHTVTEEITDVDLVHAQIHVAEGRSLPDLGLRQENIRINGCAIQCRVTTEDPARSFQPDTGRIEVFRSGEGMGIRLDNASAFQGAVISPHYDSLLVKVIAHGKDHPTAATKMSRALAEFRVRGVKTNIAFLQNVLNNQQFLAGTVDTQFIDENPELFQLRPAQNRAQKLLHYLGHVMVNGPTTPIPVKASPSPTDPVVPAVPIGPPPAGFRDILLREGPEGFARAVRNHPGLLLMDTTFRDAHQSLLATRVRTHDLKKIAPYVAHNFSKLFSMENWGGATFDVAMRFLYECPWRRLQELRELIPNIPFQMLLRGANAVGYTNYPDNVVFKFCEVAKENGMDVFRVFDSLNYLPNMLLGMEAAGSAGGVVEAAISYTGDVADPSRTKYSLQYYMGLAEELVRAGTHILCIKDMAGLLKPTACTMLVSSLRDRFPDLPLHIHTHDTSGAGVAAMLACAQAGADVVDVAADSMSGMTSQPSMGALVACTRGTPLDTEVPMERVFDYSEYWEGARGLYAAFDCTATMKSGNSDVYENEIPGGQYTNLHFQAHSMGLGSKFKEVKKAYVEANQMLGDLIKVTPSSKIVGDLAQFMVQNGLSRAEAEAQAEELSFPRSVVEFLQGYIGVPHGGFPEPFRSKVLKDLPRVEGRPGASLPPLDLQALEKELVDRHGEEVTPEDVLSAAMYPDVFAHFKDFTATFGPLDSLNTRLFLQGPKIAEEFEVELERGKTLHIKALAVSDLNRAGQRQVFFELNGQLRSILVKDTQAMKEMHFHPKALKDVKGQIGAPMPGKVIDIKVVAGAKVAKGQPLCVLSAMKMETVVTSPMEGTVRKVHVTKDMTLEGDDLILEIE
Consider B2, for which, under setting [1], the “Total (peptides)” value is 2 and the “Unique (peptides)” value was found to be 2. For the same molecule, under setting [2], the “Total (peptides)” value amounted to 4 and the “Unique (peptides)” value is 4.
